No constants are given. Whether binding was seen depends on the method and setting. In cells and extracts the contact can be indirect. A yes stands for co-enrichment or nearness to the bait. Other partners may have been found.

By UniProt entry, the sequences of proteins in these tests, tags left out. Where a name states a change or a piece, a line headed by the entry shows the natural chain unless it says otherwise.
UniProt B0XQK0: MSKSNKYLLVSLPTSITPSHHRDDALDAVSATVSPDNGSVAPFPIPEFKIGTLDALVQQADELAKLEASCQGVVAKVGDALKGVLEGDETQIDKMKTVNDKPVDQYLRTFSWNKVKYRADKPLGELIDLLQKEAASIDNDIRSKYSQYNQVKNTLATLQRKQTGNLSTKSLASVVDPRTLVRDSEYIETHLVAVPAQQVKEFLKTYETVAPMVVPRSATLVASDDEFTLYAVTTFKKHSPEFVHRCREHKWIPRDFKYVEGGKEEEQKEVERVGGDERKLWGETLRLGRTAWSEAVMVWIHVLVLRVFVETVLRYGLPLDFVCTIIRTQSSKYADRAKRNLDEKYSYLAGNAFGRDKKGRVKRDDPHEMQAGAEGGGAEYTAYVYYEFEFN
UniProt B0XXF1: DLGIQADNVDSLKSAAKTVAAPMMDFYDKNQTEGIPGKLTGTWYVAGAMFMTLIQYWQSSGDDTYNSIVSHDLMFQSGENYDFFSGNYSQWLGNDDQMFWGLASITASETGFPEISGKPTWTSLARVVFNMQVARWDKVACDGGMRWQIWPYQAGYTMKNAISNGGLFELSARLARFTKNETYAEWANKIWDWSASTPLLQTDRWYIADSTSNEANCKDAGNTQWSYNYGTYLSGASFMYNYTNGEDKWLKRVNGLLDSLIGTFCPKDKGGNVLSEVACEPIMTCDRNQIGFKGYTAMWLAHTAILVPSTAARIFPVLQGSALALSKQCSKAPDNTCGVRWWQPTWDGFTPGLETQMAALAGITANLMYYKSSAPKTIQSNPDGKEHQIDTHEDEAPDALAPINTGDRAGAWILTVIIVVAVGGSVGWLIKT
UniProt B0XTE0: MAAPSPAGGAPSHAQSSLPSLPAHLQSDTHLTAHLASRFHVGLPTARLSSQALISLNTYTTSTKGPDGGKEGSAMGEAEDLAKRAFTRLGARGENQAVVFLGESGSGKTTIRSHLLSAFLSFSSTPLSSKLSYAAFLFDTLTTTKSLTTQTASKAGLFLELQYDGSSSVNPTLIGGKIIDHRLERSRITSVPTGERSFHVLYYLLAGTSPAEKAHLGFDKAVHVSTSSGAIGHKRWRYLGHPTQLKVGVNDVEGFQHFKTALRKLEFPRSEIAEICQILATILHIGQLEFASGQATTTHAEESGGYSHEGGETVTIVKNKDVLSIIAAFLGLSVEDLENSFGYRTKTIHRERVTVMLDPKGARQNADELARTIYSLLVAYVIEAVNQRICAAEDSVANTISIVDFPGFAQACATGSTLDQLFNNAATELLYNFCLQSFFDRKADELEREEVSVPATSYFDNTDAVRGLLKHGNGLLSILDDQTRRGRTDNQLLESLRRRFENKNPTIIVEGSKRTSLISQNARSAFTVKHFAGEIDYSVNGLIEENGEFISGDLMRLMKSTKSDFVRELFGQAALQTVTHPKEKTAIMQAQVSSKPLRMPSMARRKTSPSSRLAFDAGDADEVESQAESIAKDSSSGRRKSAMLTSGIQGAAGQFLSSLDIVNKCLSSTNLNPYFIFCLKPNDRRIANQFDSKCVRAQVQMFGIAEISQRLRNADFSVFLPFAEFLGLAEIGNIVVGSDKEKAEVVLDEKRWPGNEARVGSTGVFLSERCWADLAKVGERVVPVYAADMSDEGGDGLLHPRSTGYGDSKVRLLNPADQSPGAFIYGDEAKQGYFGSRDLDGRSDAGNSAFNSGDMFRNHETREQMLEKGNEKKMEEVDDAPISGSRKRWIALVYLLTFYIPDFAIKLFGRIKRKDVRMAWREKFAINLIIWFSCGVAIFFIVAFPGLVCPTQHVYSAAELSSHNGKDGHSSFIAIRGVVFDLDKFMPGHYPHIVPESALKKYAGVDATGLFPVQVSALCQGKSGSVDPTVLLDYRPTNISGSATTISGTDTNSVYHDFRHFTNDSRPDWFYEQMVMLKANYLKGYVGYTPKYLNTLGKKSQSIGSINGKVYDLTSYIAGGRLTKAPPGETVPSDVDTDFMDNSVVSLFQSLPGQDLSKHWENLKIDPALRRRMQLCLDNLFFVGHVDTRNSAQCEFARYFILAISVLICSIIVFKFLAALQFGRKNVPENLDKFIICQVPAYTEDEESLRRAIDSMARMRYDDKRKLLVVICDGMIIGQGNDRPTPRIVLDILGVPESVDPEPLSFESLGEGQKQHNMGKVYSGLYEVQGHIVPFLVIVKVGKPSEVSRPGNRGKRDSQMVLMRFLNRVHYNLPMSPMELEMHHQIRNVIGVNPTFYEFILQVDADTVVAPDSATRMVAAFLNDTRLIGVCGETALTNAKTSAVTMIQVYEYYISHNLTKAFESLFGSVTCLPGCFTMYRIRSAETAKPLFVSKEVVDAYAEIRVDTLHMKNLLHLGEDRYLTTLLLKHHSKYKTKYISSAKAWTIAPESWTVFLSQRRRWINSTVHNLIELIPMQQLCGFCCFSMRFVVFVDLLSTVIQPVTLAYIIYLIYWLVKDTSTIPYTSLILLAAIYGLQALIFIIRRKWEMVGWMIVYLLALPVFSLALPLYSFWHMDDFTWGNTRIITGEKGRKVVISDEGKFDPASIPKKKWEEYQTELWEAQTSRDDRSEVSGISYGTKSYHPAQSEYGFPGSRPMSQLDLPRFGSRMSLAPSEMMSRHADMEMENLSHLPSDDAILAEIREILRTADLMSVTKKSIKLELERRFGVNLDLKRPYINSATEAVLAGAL
UniProt B0XNZ1: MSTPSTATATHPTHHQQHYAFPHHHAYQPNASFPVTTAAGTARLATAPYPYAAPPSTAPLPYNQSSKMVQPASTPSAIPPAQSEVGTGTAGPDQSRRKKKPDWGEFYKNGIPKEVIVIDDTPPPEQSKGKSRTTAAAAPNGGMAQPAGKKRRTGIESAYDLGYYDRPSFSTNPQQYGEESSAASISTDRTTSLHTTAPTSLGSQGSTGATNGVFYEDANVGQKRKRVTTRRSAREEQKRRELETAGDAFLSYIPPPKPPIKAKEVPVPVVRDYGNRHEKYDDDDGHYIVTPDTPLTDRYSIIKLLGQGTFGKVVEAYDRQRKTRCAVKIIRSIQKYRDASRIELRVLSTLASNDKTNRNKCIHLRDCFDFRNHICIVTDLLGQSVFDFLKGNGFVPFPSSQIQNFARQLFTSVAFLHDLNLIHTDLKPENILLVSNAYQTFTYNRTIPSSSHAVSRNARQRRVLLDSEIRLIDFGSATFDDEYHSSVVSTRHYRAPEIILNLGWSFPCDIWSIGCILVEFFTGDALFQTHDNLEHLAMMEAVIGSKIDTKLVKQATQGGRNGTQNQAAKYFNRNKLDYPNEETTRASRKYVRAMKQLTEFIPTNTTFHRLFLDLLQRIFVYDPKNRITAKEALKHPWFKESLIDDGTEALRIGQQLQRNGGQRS
UniProt B0XPR4: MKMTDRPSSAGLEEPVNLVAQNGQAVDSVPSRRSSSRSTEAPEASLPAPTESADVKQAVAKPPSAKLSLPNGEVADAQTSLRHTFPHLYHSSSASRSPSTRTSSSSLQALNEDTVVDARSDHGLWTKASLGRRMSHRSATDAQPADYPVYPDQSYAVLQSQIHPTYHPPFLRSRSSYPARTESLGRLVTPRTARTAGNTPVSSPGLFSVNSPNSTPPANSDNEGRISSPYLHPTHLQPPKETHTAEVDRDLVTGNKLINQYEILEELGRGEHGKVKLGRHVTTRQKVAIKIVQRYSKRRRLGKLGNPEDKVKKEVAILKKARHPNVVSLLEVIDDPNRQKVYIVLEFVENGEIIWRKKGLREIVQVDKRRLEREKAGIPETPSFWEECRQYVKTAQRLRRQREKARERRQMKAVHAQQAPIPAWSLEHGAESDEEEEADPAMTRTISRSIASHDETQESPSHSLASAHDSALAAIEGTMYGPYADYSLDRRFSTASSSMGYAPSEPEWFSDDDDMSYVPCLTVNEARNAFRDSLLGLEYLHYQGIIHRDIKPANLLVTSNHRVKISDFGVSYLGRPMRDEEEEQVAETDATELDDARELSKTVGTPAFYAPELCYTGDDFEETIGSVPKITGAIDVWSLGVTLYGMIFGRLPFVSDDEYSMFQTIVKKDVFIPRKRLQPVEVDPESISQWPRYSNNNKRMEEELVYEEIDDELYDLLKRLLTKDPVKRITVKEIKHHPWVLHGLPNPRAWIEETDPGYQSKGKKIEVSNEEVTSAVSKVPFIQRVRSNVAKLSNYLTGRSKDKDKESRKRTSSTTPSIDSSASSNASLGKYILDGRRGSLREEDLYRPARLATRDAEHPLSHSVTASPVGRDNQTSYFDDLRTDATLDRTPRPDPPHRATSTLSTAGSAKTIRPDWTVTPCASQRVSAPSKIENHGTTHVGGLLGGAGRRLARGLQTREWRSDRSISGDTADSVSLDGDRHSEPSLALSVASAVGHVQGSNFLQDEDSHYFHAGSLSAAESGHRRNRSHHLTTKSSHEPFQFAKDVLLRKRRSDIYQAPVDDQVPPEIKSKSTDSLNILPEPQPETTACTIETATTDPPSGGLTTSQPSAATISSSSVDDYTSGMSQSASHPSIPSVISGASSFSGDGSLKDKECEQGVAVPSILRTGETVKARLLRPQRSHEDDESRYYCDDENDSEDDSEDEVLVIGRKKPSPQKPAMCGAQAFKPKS
UniProt B0XYM2: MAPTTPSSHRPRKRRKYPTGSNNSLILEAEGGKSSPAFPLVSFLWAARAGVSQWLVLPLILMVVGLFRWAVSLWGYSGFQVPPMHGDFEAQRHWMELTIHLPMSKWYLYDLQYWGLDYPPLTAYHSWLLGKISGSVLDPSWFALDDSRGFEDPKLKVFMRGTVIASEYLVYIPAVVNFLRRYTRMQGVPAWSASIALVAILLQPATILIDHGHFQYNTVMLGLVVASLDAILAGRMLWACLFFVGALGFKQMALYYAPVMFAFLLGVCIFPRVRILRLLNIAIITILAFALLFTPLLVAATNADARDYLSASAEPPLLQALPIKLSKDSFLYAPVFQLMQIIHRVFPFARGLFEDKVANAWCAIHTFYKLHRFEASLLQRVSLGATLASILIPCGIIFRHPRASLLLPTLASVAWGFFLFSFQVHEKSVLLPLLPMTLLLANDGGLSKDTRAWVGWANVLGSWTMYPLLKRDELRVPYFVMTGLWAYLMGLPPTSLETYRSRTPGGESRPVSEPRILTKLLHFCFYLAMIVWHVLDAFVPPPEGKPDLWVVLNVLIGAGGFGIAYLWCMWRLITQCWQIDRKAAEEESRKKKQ
UniProt B0XQI7: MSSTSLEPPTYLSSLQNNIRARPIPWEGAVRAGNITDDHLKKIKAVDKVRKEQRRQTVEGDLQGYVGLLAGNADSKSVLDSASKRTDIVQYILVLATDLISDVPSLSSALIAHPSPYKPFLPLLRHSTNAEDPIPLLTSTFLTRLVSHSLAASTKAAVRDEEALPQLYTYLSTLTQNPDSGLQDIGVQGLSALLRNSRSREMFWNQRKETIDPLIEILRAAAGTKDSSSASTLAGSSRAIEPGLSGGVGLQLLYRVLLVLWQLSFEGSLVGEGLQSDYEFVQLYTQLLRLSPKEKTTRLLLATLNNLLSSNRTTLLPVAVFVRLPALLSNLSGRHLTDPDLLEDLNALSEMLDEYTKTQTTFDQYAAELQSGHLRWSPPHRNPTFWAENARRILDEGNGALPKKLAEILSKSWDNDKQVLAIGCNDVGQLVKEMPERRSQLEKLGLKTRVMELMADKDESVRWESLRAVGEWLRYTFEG
UniProt B0XTB8: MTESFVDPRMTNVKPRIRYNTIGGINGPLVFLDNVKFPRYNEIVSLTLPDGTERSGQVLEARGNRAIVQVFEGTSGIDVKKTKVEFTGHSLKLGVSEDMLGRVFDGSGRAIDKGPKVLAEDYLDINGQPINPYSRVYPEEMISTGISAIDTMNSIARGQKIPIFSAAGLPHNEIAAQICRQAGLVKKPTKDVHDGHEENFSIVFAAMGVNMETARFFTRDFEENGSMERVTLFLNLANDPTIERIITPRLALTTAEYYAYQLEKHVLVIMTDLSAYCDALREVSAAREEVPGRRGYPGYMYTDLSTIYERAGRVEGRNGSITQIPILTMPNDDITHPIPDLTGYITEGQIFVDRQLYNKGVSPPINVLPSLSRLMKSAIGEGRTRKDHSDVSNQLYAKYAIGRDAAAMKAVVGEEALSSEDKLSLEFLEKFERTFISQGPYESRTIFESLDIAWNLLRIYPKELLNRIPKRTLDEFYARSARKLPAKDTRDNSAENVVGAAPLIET
UniProt B0YDN9: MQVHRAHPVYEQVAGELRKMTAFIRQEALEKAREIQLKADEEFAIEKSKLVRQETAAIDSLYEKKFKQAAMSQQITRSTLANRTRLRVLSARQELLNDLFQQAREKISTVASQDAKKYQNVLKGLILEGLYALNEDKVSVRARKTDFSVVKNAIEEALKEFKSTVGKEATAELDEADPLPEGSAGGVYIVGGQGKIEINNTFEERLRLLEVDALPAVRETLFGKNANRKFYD

This test concerns the target VmaC-GFP (A. fumigatus V-ATPase subunit C with a C-terminal GFP tag) (A. fumigatus) (UniProt B0XQK0). As to the kind of experiment: affinity purification with mass spectrometry; GFP antibody (Roche 11814460001) used to pull down VmaC-interacting proteins from the VmaC::GFP strain; nonlabelled strain as negative control; trypsin digest, TMT labelling, HPLC fractionation, LC-MS/MS, MaxQuant.
For the substance “Serine/threonine-protein phosphatase (AFUB_005320) (from UniProt B0XNS3)”, the binding entry was “binds”.
In the case of “Mannan endo-1,6-alpha-mannosidase (AFUB_048110) (from UniProt B0XXF1)” it was “binds”.
For the substance “Chitin synthase ChsE (from UniProt B0XTE0)”, the binding entry is recorded as “binds”.
In the case of “Alpha-1,2-mannosyltransferase (Kre5) (from UniProt B0Y1C4)”, the binding result was “binds”.
Turning to “Protein kinase Lkh1 (from UniProt B0XNZ1)”, the binding result is “binds”.
With “Serine/threonine protein kinase (AFUB_007300) (from UniProt B0XPR4)” the entry was “binds”.
With “Alpha-1,3-glucosyltransferase (AFUB_041400) (from UniProt B0XYM2)” the entry was “binds”.
With “Protein kinase (AFUB_051670) (from UniProt B0Y2R3)” the entry was “binds”; with “Vacuolar ATP synthase subunit H (from UniProt B0XQI7)”, “binds”; with “Vacuolar ATP synthase subunit B (from UniProt B0XTB8)”, “binds”.
Turning to “1,3-beta-glucan synthase catalytic subunit Fks1 (from UniProt B0Y8S7)”, the binding result is recorded as “binds”.
With “Protein kinase activator Bem1 (from UniProt B0YEE5)” the entry was “binds”.
With “Vacuolar ATP synthase subunit E (from UniProt B0YDN9)” the entry was “binds”; with “Vacuolar ATP synthase catalytic subunit A (from UniProt B0Y2B8)”, “binds”.
